# According to paper PMC4356135, “Small heat shock protein 20 (Hsp20) facilitates nuclear import of protein kinase D 1 (PKD1) during cardiac hypertrophy” (Cell Communication and Signaling : CCS, 2015):
# Results are given in words; binding and its absence hold for the method and conditions named. For part of these data: In cells and extracts the contact can be indirect. Some entries that bind do so weakly or less than the wild type. For part of these data: Tags and fused reporters may be left off the sequences shown.
# T1: endogenous Hsp20 of neonatal rat cardiac myocytes (rat (endogenous in neonatal rat cardiac myocytes)) (UniProt P97541)
# T1 sequence: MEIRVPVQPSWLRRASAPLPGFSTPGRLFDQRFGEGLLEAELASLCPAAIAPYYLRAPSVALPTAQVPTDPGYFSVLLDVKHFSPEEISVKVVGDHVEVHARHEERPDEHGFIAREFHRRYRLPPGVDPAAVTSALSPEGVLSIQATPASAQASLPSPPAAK
# T2: His-tagged HSP20 protein (UniProt O14558 1-160)
# T2 construct: HSP20 (heat shock protein 20), open reading frame from Ultimate ORF clone IOH57317 in pENTR221, moved into pDEST-17 by Gateway cloning; also called His-HSP20; His-Hsp20; source: E. coli, purified (Ni-NTA Superflow resin); not shown: His, N-terminal, kept
# T2 sequence (looked up): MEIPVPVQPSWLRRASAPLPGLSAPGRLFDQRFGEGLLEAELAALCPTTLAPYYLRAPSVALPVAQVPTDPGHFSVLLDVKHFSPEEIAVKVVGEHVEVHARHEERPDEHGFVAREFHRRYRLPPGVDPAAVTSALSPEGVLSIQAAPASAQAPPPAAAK
# T3: Hsp20-V5 (UniProt O14558)
# T3 sequence: T2 sequence (looked up)
# B1: endogenous PKD1 of neonatal rat cardiac myocytes (protein, UniProt Q9WTQ1 1-918)
# chain: MSAPPLLRPPSPLLPAAAAVAAAAAALVPGSGPAPFPAPGAAPAGGISFHLQIGLSREPVLLLQDSSGDYSLAHVREMACSIVDQKFPECGFYGLYDKILLFRHDPASENILQLVKIASDIQEGDLIEVVLSASATFEDFQIRPHALFVHSYRAPAFCDHCGEMLWGLVRQGLKCEGCGLNYHKRCAFKIPNNCSGVRRRRLSNVSLTGLGTVRTASAEFSTSAPDEPLLSPVSPGFEQKSPSESFIGREKRSNSQSYVGRPIQLDKLLMSKVKVPHTFVIHSYTRPTVCQFCKKLLKGLFRQGLQCKDCRFNCHKRCAPKVPNNCLGEVTINGELLSPGAESDVVMEEGSDDNDSERNSGLMDDMDEAMVQDTEMALAEGQSDGAEMQDPDADQEDSNRTISPSTSNNIPLMRVVQSVKHTKRRSSTVMKEGWMVHYTSKDTLRKRHYWRLDSKSITLFQNDTGSRYYKEIPLSEILCLEPAKPSALIPTGANPHCFEITTANVVYYVGENVVNPSSPPPNNSVPPSGIGTDVARMWEVAIQHALMPVIPKGSSVGSGTNSHKDISVSISVSNSQIQENVDISTVYQIFPDEVLGSGQFGIVYGGKHRKTGRDVAIKIIDKLRFPTKQESQLRNEVAILQNLHHPGVVNLECMFETPERVFVVMEKLHGDMLEMILSSEKGRLPEHITKFLITQILVALRHLHFKNIVHCDLKPENVLLASADPFPQVKLCDFGFARIIGEKSFRRSVVGTPAYLAPEVLRNKGYNRSLDMWSVGVIIYVSLSGTFPFNEDEDIHDQIQNAAFMYPPNPWKEISHEAIDLINNLLQVKMRKRYSVDKTLSHPWLQDYQTWLDLRELECRIGERYITHESDDSRWEQYAGEQGLQYPAHLINLSASHGDSPEAEEREMKALSERVSIL
# B2: PKD1 (Abcam), purified recombinant (protein, UniProt Q15139 1-912)
# chain: MSAPPVLRPPSPLLPVAAAAAAAAAALVPGSGPGPAPFLAPVAAPVGGISFHLQIGLSREPVLLLQDSSGDYSLAHVREMACSIVDQKFPECGFYGMYDKILLFRHDPTSENILQLVKAASDIQEGDLIEVVLSASATFEDFQIRPHALFVHSYRAPAFCDHCGEMLWGLVRQGLKCEGCGLNYHKRCAFKIPNNCSGVRRRRLSNVSLTGVSTIRTSSAELSTSAPDEPLLQKSPSESFIGREKRSNSQSYIGRPIHLDKILMSKVKVPHTFVIHSYTRPTVCQYCKKLLKGLFRQGLQCKDCRFNCHKRCAPKVPNNCLGEVTINGDLLSPGAESDVVMEEGSDDNDSERNSGLMDDMEEAMVQDAEMAMAECQNDSGEMQDPDPDHEDANRTISPSTSNNIPLMRVVQSVKHTKRKSSTVMKEGWMVHYTSKDTLRKRHYWRLDSKCITLFQNDTGSRYYKEIPLSEILSLEPVKTSALIPNGANPHCFEITTANVVYYVGENVVNPSSPSPNNSVLTSGVGADVARMWEIAIQHALMPVIPKGSSVGTGTNLHRDISVSISVSNCQIQENVDISTVYQIFPDEVLGSGQFGIVYGGKHRKTGRDVAIKIIDKLRFPTKQESQLRNEVAILQNLHHPGVVNLECMFETPERVFVVMEKLHGDMLEMILSSEKGRLPEHITKFLITQILVALRHLHFKNIVHCDLKPENVLLASADPFPQVKLCDFGFARIIGEKSFRRSVVGTPAYLAPEVLRNKGYNRSLDMWSVGVIIYVSLSGTFPFNEDEDIHDQIQNAAFMYPPNPWKEISHEAIDLINNLLQVKMRKRYSVDKTLSHPWLQDYQTWLDLRELECKIGERYITHESDDLRWEKYAGEQGLQYPTHLINPSASHSDTPETEETEMKALGERVSIL
# B3: GFP-PKD1 (protein, UniProt Q15139 1-912)
# chain: B2 chain
# How the values were obtained:
# [1] = target: T1, endogenous Hsp20 of neonatal rat cardiac myocytes (rat (endogenous in neonatal rat cardiac myocytes)); experiment: co-IP; endogenous Hsp20 and PKD1 of neonatal cardiac myocytes treated with cell-permeable disruptor (DIS) or control (CTR) peptide, 10 uM
# [2] = target: T1, endogenous Hsp20 of neonatal rat cardiac myocytes (rat (endogenous in neonatal rat cardiac myocytes)); experiment: co-IP; endogenous proteins of neonatal rat cardiac myocyte lysate; HSP20 or PKD1 antibodies, Protein A beads, 4 C overnight; isotype-matched IgG as mock IP
# [3] = target: T1, endogenous Hsp20 of neonatal rat cardiac myocytes (rat (endogenous in neonatal rat cardiac myocytes)); experiment: proximity ligation; Duolink PLA with primary antibodies against PKD1 and HSP20 in fixed neonatal cardiac myocytes; basal, ISO, control peptide + ISO, disruptor peptide + ISO
# [4] = target: T1, endogenous Hsp20 of neonatal rat cardiac myocytes (rat (endogenous in neonatal rat cardiac myocytes)); experiment: co-IP; disruption of the co-IP of endogenous Hsp20 and PKD1 of neonatal cardiac myocytes by the synthetic cell-permeable disruptor peptide, 10 uM; only the binder purified
# [5] = target: T2, His-tagged HSP20 protein; experiment: pull-down; equal molar purified recombinant His or His-HSP20 and PKD1 mixed in 3T3 lysis buffer, 1 h at 4 C, captured on Ni-NTA Superflow resin, washed three times, blotted with anti-PKD1; both purified
# [6] = target: T3, Hsp20-V5; experiment: co-IP; HEK293 cells transiently transfected with V5-HSP20 and GFP-PKD1; V5 or GFP antibodies, Protein A beads, 4 C overnight; isotype-matched IgG as mock IP
binder,measurement,setting,value
B1,binding,[1],binds
same,binding,[2],binds
same,binding,[3],binds
GRDVAIKIIDKLRFPTKQESQLRNE (N-terminal stearoyl group (CH3(CH2)16COOH)) [Hsp20-PKD1 disruptor peptide],binding,[4],binds
B2,binding,[5],binds
B3,binding,[6],binds
